Laboratory results as given in patent publication US20180371066A1.
Positions count from the first letter of the chain named. In names and notes the source's numbering stands. No constants are given. Whether binding was seen depends on the method and setting. Some entries that bind do so weakly or less than the wild type. Blank lines part the entries; values can stand above or below the binder they belong to.

Protein sequences, listed by entry. Tags and fused reporters are not part of them. Lines headed by an entry give the natural chain unless they say otherwise; changes in a name come on top. Chains listed by the source or under a name are the forms on record and can include a tag or linker. Residues count along the entry.
Tau 1-54 (P10636, residues 1-54): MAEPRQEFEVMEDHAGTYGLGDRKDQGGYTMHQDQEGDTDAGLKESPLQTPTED
variants of human tau that included the first 34 amino acids, expressed on yeast (P10636, residues 1-34): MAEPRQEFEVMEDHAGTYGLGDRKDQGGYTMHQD
tau aggregates in brain tissue of human subjects with AD or PSP (P10636, form named): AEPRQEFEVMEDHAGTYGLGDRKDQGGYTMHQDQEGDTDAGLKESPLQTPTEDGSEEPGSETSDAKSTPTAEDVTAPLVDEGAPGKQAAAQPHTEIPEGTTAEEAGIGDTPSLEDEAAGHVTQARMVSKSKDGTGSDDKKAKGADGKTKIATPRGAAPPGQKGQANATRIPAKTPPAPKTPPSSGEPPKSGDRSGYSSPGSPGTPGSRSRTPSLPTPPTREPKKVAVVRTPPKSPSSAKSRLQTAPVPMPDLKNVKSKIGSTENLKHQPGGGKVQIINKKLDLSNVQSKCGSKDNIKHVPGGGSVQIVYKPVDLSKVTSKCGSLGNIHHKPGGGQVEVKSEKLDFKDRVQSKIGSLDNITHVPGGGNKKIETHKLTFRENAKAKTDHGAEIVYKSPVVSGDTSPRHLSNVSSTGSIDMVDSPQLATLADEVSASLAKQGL
tau in human CSF (P10636, form named): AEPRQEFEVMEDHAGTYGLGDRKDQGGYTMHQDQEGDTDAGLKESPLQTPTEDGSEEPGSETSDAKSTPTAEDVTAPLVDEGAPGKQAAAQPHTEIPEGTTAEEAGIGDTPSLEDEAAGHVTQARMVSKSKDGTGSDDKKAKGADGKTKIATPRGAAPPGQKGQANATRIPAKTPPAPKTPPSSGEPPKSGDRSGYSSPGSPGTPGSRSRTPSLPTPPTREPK
Tau 25-135 (P10636, form named): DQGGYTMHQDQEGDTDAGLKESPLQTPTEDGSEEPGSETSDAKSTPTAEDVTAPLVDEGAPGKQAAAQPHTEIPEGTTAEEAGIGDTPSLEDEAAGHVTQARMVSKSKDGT

Key:
[1] = target: tau aggregates in brain tissue of human subjects with AD or PSP (human) (UniProt P10636); assay: staining of brain tissue sections
[2] = target: human tau (human) (UniProt P10636); assay: ELISA on coated tau (legend of FIG. 10)
[3] = target: human tau (human) (UniProt P10636); assay: ELISA, 96 well plates coated with human tau at various concentrations
[4] = target: tau in human CSF (human) (UniProt P10636); assay: sandwich ELISA, C2N-8E12 coated, biotinylated HJ8.7 detection, control human IgG4 wells as negative control
[5] = target: human tau (human) (UniProt P10636); assay: direct ELISA on 96-well plates coated with tau at varied concentration; OD 650nm against Log (Tau, ng/ml)
[6] = target: human tau (human) (UniProt P10636); assay: sandwich ELISA: human tau at varied concentration captured by an anti-tau antibody of another epitope (r1), detected with the named antibody; OD 650nm against Log [Tau Conc. (ng/ml)]
[7] = target: tau aggregates in brain tissue of human subjects with AD or PSP (human) (UniProt P10636); assay: immunostaining of brain sections
[8] = target: variants of human tau that included the first 34 amino acids, expressed on yeast (human) (UniProt P10636); assay: yeast display, immunofluorescence
[9] = target: Tau 1-54 (Homo sapiens) (UniProt P10636); assay: yeast display of tau fragments, binding by immunofluorescence
[10] = target: Tau 25-135 (Homo sapiens) (UniProt P10636); assay: as above

binding [1]: binds
binding [2]: binds
binding [3]: binds
binding [4]: binds
binding [5]: binds
binding [6]: binds
B1: VH1/VK2 humanized anti-tau antibody (C2N-8E12) (antibody, human IgG4 S228P, kappa, V domains shown)
VH: EVKVVESGGGLVQPGGSMKLSCVVSGFTFSNYWVNWVRQAPGKGLEWVAQIRLKSDNYATHYEESVKGRFTISRDDSKSSVYLQMNNLRAEDSGIYYCTNWEDYWGQGTTVTVSS
VL: DIVLTQSPDSLAVSLGERATISCRASQSVSTSRYSYIHWYQQKPGQPPKLLIKYASNLESGVPSRFSGSGSGTDFTLNIHPLEPEDFATYYCHHSWEIPLTFGQGTKLEIKR

binding [1]: binds
binding [6]: binds
B2: VH2/VK2 humanized anti-tau antibody (antibody, human IgG4 S228P, kappa, V domains shown)
VH: B1 VH with M18L, N87S, S93T
VL: B1 VL

binding [1]: binds
B3: VH3/VK2 humanized anti-tau antibody (antibody, human IgG4 S228P, kappa, V domains shown)
VH: B1 VH with K3Q, M18L, S79N, N87S, S93T, G94A
VL: B1 VL

binding [6]: binds
B4: VH1/VK1 (antibody, human IgG4 S228P, kappa, V domains shown)
VH: B1 VH
VL: B1 VL with P84E

binding [6]: binds
B5: VH4/VK3 (antibody, human IgG4 S228P, kappa, V domains shown)
VH: B1 VH with K3Q, V4L, M18L, S79N, V81L, N87S, S93T, G94A
VL: B1 VL with N78T, H80S, P81S, E83Q

binding [1]: binds
binding [7]: binds
binding [6]: binds
B6: chimeric HJ8.5 monoclonal antibody (antibody, V domains shown)
VH: B1 VH with V5E, A40S, G42E, V111L
VL: DIVLTQSPASLAVSLGQRATISCRASQSVSTSRYSYIHWYQQKPGQPPKLLIKYASNLESGVPARFSGSGSGTDFTLNIHPLEEEDAATYYCHHSWEIPLTFGAGTKLELK

binding [8]: binds
binding [7]: binds
binding [2]: binds
binding [9]: binds
binding [10]: binds
binding [3]: binds
binding [5]: binds
B7: murine anti-tau antibody HJ8.5 (antibody, V domains shown)
VH: B1 VH with V5E, A40S, G42E, V111L
VL: B6 VL
